Record: PubChem BioAssay AID504786 (Drosophila RNAi Screening Center, 2011)
The deposit covers about 21,000 reagents; shown is an unselected part of those that have a named target and a result. 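Primary screen; positive scores mean lost reporter signal, so the sign may be inverted from the usual convention.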 Names joined by + are all predicted targets of the reagent.

Purpose: 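Fly genes required for HIF-dependent transcription when hypoxia is mimicked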 (primary screen)
System: Drosophila S2 cells with a stable HIF luciferase reporter
Reagent: long dsRNA against Drosophila genes, about 0.2 µg dsRNA per well of a 384-well plate
Duration: three days of knock-down, then 20 h of DFO before reading
Conditions: desferrioxamine (DFO) at 100 µM, an iron chelator that mimics hypoxia, for 20 h
Read-out: 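Firefly luciferase driven by the mouse ldh-a hypoxia-response element, measured after 20 h of 100 µM DFO; z-scores per plate, higher means more signal lost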
Direction: z-score: higher = stronger loss of HIF reporter signal

target gene | amplicon | z-score, replicate 1 | z-score, replicate 2 | z-score, replicate 3 | z-score, replicate 4
AgmNAT | DRSC18072 | -0.3 | -0.4 | – | –
CG6724 | DRSC02983 | -0.3 | -0.3 | – | –
CG18327 | DRSC06722 | 0.1 | -0.2 | – | –
Syb | DRSC07559 | -0.4 | -0.5 | – | –
CG15578 | DRSC18066 | -0.2 | 0.3 | – | –
CG14947 | DRSC02429 | -0.4 | -0.6 | – | –
CG31082 (retired record) | DRSC13775 | -0.6 | -0.4 | – | –
Gr59f | DRSC04499 | -0.2 | 0.8 | – | –
resilin | DRSC05627 | -0.1 | -0.2 | – | –
resilin | DRSC06595 | -0.3 | -0.4 | – | –
pix | DRSC10533 | 6.4 | 5.7 | – | –
CG42662 + CG30080 | DRSC05571 | 0.1 | 0 | – | –
mRpL36 | DRSC10337 | 1.2 | 1.3 | – | –
CG15370 | DRSC18042 | -0.2 | 0.2 | – | –
LManIII | DRSC03221 | -0.1 | 0.2 | – | –
Tpi | DRSC16888 | -0.3 | -0.1 | – | –
slmo + CG34179 | DRSC03143 | 0 | -0.3 | – | –
CG15263 | DRSC01974 | -0.2 | -0.6 | – | –
CG11889 + CG11891 | DRSC14426 | -0.6 | -0.8 | – | –
CG11889 + CG11891 | DRSC14427 | -0.3 | -0.4 | – | –
rnh1 | DRSC07673 | 0 | 0.4 | – | –
CHMP2B | DRSC10436 | -0.2 | -0.4 | – | –
CG17598 | DRSC20636 | -0.3 | 0.3 | – | –
lectin-28C | DRSC03010 | -0.3 | -0.5 | – | –
Qsox1 | DRSC06878 | -0.6 | 0 | – | –
ND6 (retired record) | DRSC21271 | 0 | -0.3 | -0.5 | -0.4
Spindly | DRSC00430 | 0.3 | 1 | – | –
MBD-like | DRSC16996 | 0.2 | 0.6 | – | –
Muc68Ca | DRSC10312 | -0.4 | -0.1 | – | –
Muc68Ca | DRSC10313 | -0.1 | -0.2 | – | –
mora | DRSC16594 | -0.4 | -0.4 | – | –
Hinfp | DRSC18484 | -0.3 | -0.2 | – | –
Neurl4 | DRSC10638 | -0.1 | -0.2 | – | –
Atg18a | DRSC10943 | -0.1 | -0.1 | – | –
inaE | DRSC19376 | -0.3 | -0.7 | – | –
inaE | DRSC19377 | -0.3 | -0.6 | – | –
inaE | DRSC19379 | -0.1 | 0.1 | – | –
inaE | DRSC19726 | -0.3 | -0.2 | – | –
Ent2 | DRSC02124 | -0.2 | -0.4 | – | –
Ythdc1 | DRSC08141 | -0.4 | -0.7 | – | –
mAChR-B | DRSC16345 | 5.9 | 2.2 | – | –
CG3566 | DRSC18311 | -0.2 | 0.2 | – | –
Miox | DRSC10747 | -0.2 | -0.1 | – | –
Amyrel | DRSC05920 | -0.2 | -0.8 | – | –
CG8420 | DRSC16418 | -0.1 | 0.5 | – | –
CG30095 | DRSC07175 | -0.3 | -0.4 | – | –
Muc26B | DRSC02322 | -0.3 | 0 | – | –
Jhbp14 | DRSC01988 | 0.1 | -0.5 | – | –
Drs | DRSC08657 | -0.3 | -0.5 | – | –
Als2 | DRSC11806 | -0.3 | -0.2 | – | –
CG6901 | DRSC16129 | -0.1 | -0.2 | – | –
glo | DRSC16145 | 0 | 0.2 | – | –
Golgin84 | DRSC15269 | -0.4 | 0.3 | – | –
CG5909 | DRSC15914 | -0.2 | -0.1 | – | –
Mal-A7 | DRSC06077 | -0.2 | -0.2 | – | –
CG2861 | DRSC18229 | -0.3 | -0.5 | – | –
Mst77F | DRSC11871 | -0.3 | -0.4 | – | –
mRpL55 | DRSC14764 | 1.4 | 1.6 | – | –
Mst33A | DRSC03371 | -0.4 | -0.4 | – | –
CG13157 | DRSC06282 | -0.2 | -0.3 | – | –
CG3589 | DRSC04392 | -0.2 | -0.4 | – | –
Scgbeta | DRSC15854 | -0.2 | -0.4 | – | –
Ns2 | DRSC06993 | 0.2 | -0.2 | – | –
tplus3a + tplus3b | DRSC03687 | 1.2 | 0.1 | – | –
CG13538 | DRSC04180 | -0.3 | -0.2 | – | –
zuc | DRSC02160 | -0.3 | -0.3 | – | –
Mst84B | DRSC12579 | -0.2 | -0.6 | – | –
glob3 | DRSC12261 | 0.1 | -0.2 | – | –
ninaE | DRSC17014 | -1.1 | -1 | – | –
Nelf-A | DRSC15903 | -0.2 | -0.6 | – | –
CG10116 | DRSC09700 | -0.1 | -0.1 | – | –
dpr15 | DRSC12891 | -0.2 | -0.1 | – | –
dpr15 | DRSC14187 | -0.2 | 1.7 | – | –
dpr15 | DRSC14188 | -0.5 | -0.4 | – | –
Pgant4 | DRSC00717 | -0.3 | -0.5 | – | –
CG31140 | DRSC13649 | -0.3 | -0.2 | – | –
CG31140 | DRSC14603 | -0.3 | -0.2 | – | –
CG31140 | DRSC15904 | -0.2 | -0.2 | – | –
Arpc1 | DRSC03438 | 0.4 | 1.1 | – | –
Cad86C | DRSC15587 | -0.4 | -0.4 | – | –
Cad86C | DRSC15611 | -0.1 | 0 | – | –
RpL31 | DRSC06716 | 5.3 | 4.8 | – | –
Snap29 | DRSC04721 | -0.4 | -0.9 | – | –

10 neighbouring records already listed:
target gene | amplicon | z-score, replicate 1 | z-score, replicate 2 | z-score, replicate 3 | z-score, replicate 4
Mst77F | DRSC11871 | -0.3 | -0.4 | – | –
mRpL55 | DRSC14764 | 1.4 | 1.6 | – | –
Mst33A | DRSC03371 | -0.4 | -0.4 | – | –
CG13157 | DRSC06282 | -0.2 | -0.3 | – | –
CG3589 | DRSC04392 | -0.2 | -0.4 | – | –
Scgbeta | DRSC15854 | -0.2 | -0.4 | – | –
Ns2 | DRSC06993 | 0.2 | -0.2 | – | –
tplus3a + tplus3b | DRSC03687 | 1.2 | 0.1 | – | –
CG13538 | DRSC04180 | -0.3 | -0.2 | – | –
zuc | DRSC02160 | -0.3 | -0.3 | – | –
